Results deposited as PubChem BioAssay AID1259424 (University of Nebraska Medical Center, 2018).

Test: 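Seek colon cancer survival genes behaving like KSR1, using a six-gene signature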 (primary screen)
Cell system: human HCT116 colon cancer cells
Reagent: siRNA pool against human genes, 50 nM
Measured: 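Six signature mRNAs by branched-DNA multiplex assay, scaled to two housekeeping genes and non-targeting median, log2; matched to mean KSR1 knockdown profile by Pearson correlation and euclidean distance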
Direction: mean correlation with KSR1 profile: higher = expression change more like KSR1 knockdown
Here is one part, drawn at random, of about 14,000 deposited reagents. 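Higher correlation or smaller distance means closer resemblance to KSR1 loss; control wells, including KSR1 knockdowns, recur on many plates.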 Further read-outs or replicates are left out here. No sequences are given here. Not given: the time to read-out.

ASAP1 (ArfGAP with SH3 domain, ankyrin repeat and PH domain 1) [SID364001109] — mean correlation with KSR1 profile = -0.433
LONP1 (lon peptidase 1, mitochondrial) [SID363995749] — mean correlation with KSR1 profile = -0.0468
DYNLL1 (dynein light chain LC8-type 1) [SID363994813] — mean correlation with KSR1 profile = -0.162
VN1R4 (vomeronasal 1 receptor 4) [SID364004850] — mean correlation with KSR1 profile = 0.624
BAHD1 (bromo adjacent homology domain containing 1) [SID363999220] — mean correlation with KSR1 profile = 0.266
NR6A1 (nuclear receptor subfamily 6 group A member 1) [SID363992747] — mean correlation with KSR1 profile = 0.42
RAB5B (RAB5B, member RAS oncogene family) [SID363994024] — mean correlation with KSR1 profile = 0.188
CCNA1 (cyclin A1) [SID363994970] — mean correlation with KSR1 profile = 0.202
APOE (apolipoprotein E) [SID363991380] — mean correlation with KSR1 profile = -0.328
PPP1R3C (protein phosphatase 1 regulatory subunit 3C) [SID363996307] — mean correlation with KSR1 profile = -0.365
DKFZP586K1520 (retired record) [SID364005565] — mean correlation with KSR1 profile = -0.491
GPRASP1 (G protein-coupled receptor associated sorting protein 1) [SID363999048] — mean correlation with KSR1 profile = -0.192
P2RX1 (purinergic receptor P2X 1) [SID363993727] — mean correlation with KSR1 profile = 0.0225
UNG (uracil DNA glycosylase) [SID363994474] — mean correlation with KSR1 profile = 0.497
SPTLC3 (serine palmitoyltransferase long chain base subunit 3) [SID364000980] — mean correlation with KSR1 profile = -0.192
TPSAB1 (tryptase alpha/beta 1) [SID363994412] — mean correlation with KSR1 profile = -0.235
TPSAB1 (tryptase alpha/beta 1) [SID363994413] — mean correlation with KSR1 profile = -0.35
TYRP1 (tyrosinase related protein 1) [SID363991873] — mean correlation with KSR1 profile = 0.119
DCAF6 (DDB1 and CUL4 associated factor 6) [SID364001075] — mean correlation with KSR1 profile = -0.243
GSKIP (GSK3B interacting protein) [SID364000128] — mean correlation with KSR1 profile = -0.307
TNMD (tenomodulin) [SID364002370] — mean correlation with KSR1 profile = -0.452
OTUD5 (OTU deubiquitinase 5) [SID364000388] — mean correlation with KSR1 profile = -0.487
BRCA1 (BRCA1 DNA repair associated) [SID363997977] — mean correlation with KSR1 profile = -0.182
BTNL3 (butyrophilin like 3) [SID363997487] — mean correlation with KSR1 profile = -0.405
ZMYM4 (zinc finger MYM-type containing 4) [SID363996031] — mean correlation with KSR1 profile = 0.143
DRD3 (dopamine receptor D3) [SID363992086] — mean correlation with KSR1 profile = 0.451
POLR1C (RNA polymerase I and III subunit C) [SID363995826] — mean correlation with KSR1 profile = -0.365
BAALC (BAALC binder of MAP3K1 and KLF4) [SID364003079] — mean correlation with KSR1 profile = 0.864
TASOR (transcription activation suppressor) [SID363999369] — mean correlation with KSR1 profile = -0.116
TSPAN4 (tetraspanin 4) [SID363994390] — mean correlation with KSR1 profile = -0.404
CYP2W1 (cytochrome P450 family 2 subfamily W member 1) [SID364000524] — mean correlation with KSR1 profile = -0.446
FTCD (formimidoyltransferase cyclodeaminase) [SID363997443] — mean correlation with KSR1 profile = -0.00651
BCHE (butyrylcholinesterase) [SID363991393] — mean correlation with KSR1 profile = -0.286
H2BC5 (H2B clustered histone 5) [SID364001982] — mean correlation with KSR1 profile = -0.17
ITGB3 (integrin subunit beta 3) [SID363991547] — mean correlation with KSR1 profile = 0.62
GTF3C4 (general transcription factor IIIC subunit 4) [SID363998137] — mean correlation with KSR1 profile = -0.372

Targets above whose target name starts with D or d (4):
DYNLL1 (dynein light chain LC8-type 1) [SID363994813] — mean correlation with KSR1 profile = -0.162
DKFZP586K1520 (retired record) [SID364005565] — mean correlation with KSR1 profile = -0.491
DCAF6 (DDB1 and CUL4 associated factor 6) [SID364001075] — mean correlation with KSR1 profile = -0.243
DRD3 (dopamine receptor D3) [SID363992086] — mean correlation with KSR1 profile = 0.451
